Some results were stated once for a whole list of compounds, not compound by compound.
Test system: NK92 cells
Experiment: IFN-γ production in NK92 cells, released IFN-γ in culture supernatant by ELISA
Format: cell-based, human
Conditions: NK92 cells cultured 12 hours with compound, FIG. 11
Description: NK92 cells (human NK lymphoma) were obtained from American Type Culture Collection. NK92 cells were kept in α-MEM (Invitrogen, US) containing 20% fetal bovine serum (Invitrogen), 2 mM […], […] (Invitrogen), and were replenished with 100 U/mL IL-2 (Peprotech, US). NK92 cell culture was carried out in a culture medium at 37° C. under 5% CO2 humidity atmosphere. The amount of human IFN-γ was analyzed according to the protocol of a supplier using an assay kit (Endogen, Woburn, US).
In order to detect IFN-γ, 2×10^5 NK92 cell/mL was inoculated in a 48-well culture plate, and was cultured for 12 hours with each isolated compounds in an α-MEM medium containing 20% FBS and IL-2. The IFN-γ released in the culture supernatant was analyzed using an ELISA method. The absorbance was measured on a microplate reader and the treatment and the analysis for all the compounds were repeated twice. The cell toxicity of the compound-treated NK92 cells was evaluated through an MTT analysis.

| Molecule | production of IFN-γ in NK92 cells |
| --- | --- |
| CCCCC/C=C\C=C\C(=O)O[C@H]1C(C)=C[C@]23C(=O)[C@@H](C=C(COC(C)=O)[C@@H](O)[C@]12O)[C@H]1[C@@H](C[C@H]3C)C1(C)C [Compound 4, 20-O-acetylingenol-3-O-(2′E,4′Z) decadienate] | induce the production of IFN-γ |
| CCCCCCCCCC(=O)OCC1=C[C@@H]2C(=O)[C@]3(C=C(C)[C@H](O)[C@@]3(O)[C@@H]1O)[C@H](C)C[C@@H]1[C@H]2C1(C)C [Compound 3, 20-O-decanoylingenol] | induce the production of IFN-γ |
| CCCCCCCCCCCC(=O)O[C@@]12C[C@@H](C)[C@]34C=C(C)[C@H](OC(=O)C(C)C(C)C)[C@@]3(O)[C@H](O)C(CO)=C[C@H](C4=O)[C@@H]1C2(C)C (stereo partly shown) [Compound 6, 3-O-(2,3-dimethylbutanoyl)-13-O-dodecanoylingenol] | induce the production of IFN-γ |
| CCCCCCCCCCCC(=O)O[C@@]12C[C@@H](C)[C@]34C=C(C)[C@H](O)[C@@]3(O)[C@H](OC(=O)C(C)C(C)C)C(C)=C[C@H](C4=O)C1C2(C)C (stereo partly shown) [Compound 1, 5-O-(2,3-dimethylbutanoyl)-13-O-dodecanoyl-20-O-deoxyingenol] | induce the production of IFN-γ |
| 3-O-(2,3-dimethylbutanoyl)-13-O-dodecanoyl-20-O-deoxyingenol [Compound 2] | induce the production of IFN-γ |
| gansuiphorin A [Compound 5] | induce the production of IFN-γ |
| C[C@H](C/C=C/C(C)(C)O)[C@@H]1CC[C@]2(C)C3=C(CC[C@@]12C)[C@@]1(C)CC[C@H](O)C(C)(C)C1CC3 (stereo partly drawn) [Compound 8, (20R,23E)-eupha-8,23-diene-3b,25-diol] | induce the production of IFN-γ |

Reference: US9481630B2, “Ingenane-type diterpene compound, and pharmaceutical composition for treating or preventing viral infectious diseases containing same” (priority 2011, dated 2016)
